Assay results from PMC7377239, “Cardiovascular Effects of Polychlorinated Biphenyls and Their Major Metabolites” (Environmental Health Perspectives, 2020).

System: iPSC-CMs, iPSC-ECs and HUVECs phenotypes
Experiment: ToxPi 2.0 integration of POD values and physicochemical descriptors
Set-up: species or system human
Conditions: for huvec.mtl.18hr ToxPi / huvec.tlps.18hr ToxPi / huvec.tta.18hr ToxPi / huvec.ttl.18hr ToxPi: HUVECs tube formation; for huvec.mtl.18hr ToxPi / huvec.tlps.18hr ToxPi / huvec.tta.18hr ToxPi / huvec.ttl.18hr ToxPi / huvec.cyto.24hr ToxPi / huvec.mito.24hr ToxPi / huvec.mitoint.24hr ToxPi / huvec.nma.24hr ToxPi / huvec.tc.24hrs ToxPi: scaled score from POD; for huvec.cyto.24hr ToxPi / huvec.mito.24hr ToxPi / huvec.mitoint.24hr ToxPi / huvec.nma.24hr ToxPi / huvec.tc.24hrs ToxPi: HUVECs; for endo.mtl.18hr ToxPi / endo.tlps.18hr ToxPi / endo.tta.18hr ToxPi / endo.ttl.18hr ToxPi / endo.cyto.24hr ToxPi / endo.mito.24hr ToxPi / endo.mitoint.24hr ToxPi / endo.nma.24hr ToxPi / endo.tc.24hrs ToxPi: iPSC-EC, scaled POD score; for ToxPi_Score_Bioactivity: Biological Activity ToxPi, POD values of iPSC-CM, iPSC-EC and HUVEC phenotypes integrated; for ToxPi_Score_ChemBiol: Chemical-Biological Integration ToxPi, in vitro data plus physicochemical descriptors
Outline: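 Phenotypic readouts in iPSC-cardiomyocytes, iPSC-endothelial cells and HUVECs were normalised to 0.5% DMSO vehicle and fitted to a four-parameter logistic model. POD set at one SD cutoff of vehicle means, with 100 μM assigned when no response. PODs and physicochemical descriptors combined in ToxPi 2.0 scores.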

Structure (SMILES)	cm.amp.avg.90min ToxPi	cm.amp.cv.90min ToxPi	cm.bpm.90min ToxPi	cm.cam.90min ToxPi	cm.decay.rise.90min ToxPi	cm.mii.90min ToxPi	cm.mito.90min ToxPi	cm.spacing.cv.90min ToxPi	cm.tc.90min ToxPi	cm.amp.avg.24hrs ToxPi	cm.amp.cv.24hrs ToxPi	cm.bpm.24hrs ToxPi	cm.cam.24hrs ToxPi	cm.decay.rise.24hrs ToxPi	cm.mii.24hrs ToxPi	cm.mito.24hrs ToxPi	cm.spacing.cv.24hrs ToxPi	cm.tc.24hrs ToxPi	ToxPi_Score_Bioactivity	ToxPi_Score_ChemBiol	also measured
Clc1ccc(Cl)c(-c2c(Cl)ccc(Cl)c2Cl)c1 [PCB95]	0.33	0.67	0.74	0.41	0.16	0.00	0.38	0.23	0.39	0.00	0.21	1.00	0.32	0.23	0.40	0.52	0.19	0.56	–	–	huvec.mtl.18hr ToxPi: 0.56; huvec.tlps.18hr ToxPi: 0.00; huvec.tta.18hr ToxPi: 0.00; huvec.ttl.18hr ToxPi: 0.00; huvec.cyto.24hr ToxPi: 0.95; huvec.mito.24hr ToxPi: 1.00; huvec.mitoint.24hr ToxPi: 0.52; huvec.nma.24hr ToxPi: 0.50; huvec.tc.24hrs ToxPi: 0.95; endo.mtl.18hr ToxPi: 0.0754; endo.tlps.18hr ToxPi: 0.10; endo.tta.18hr ToxPi: 0.0656; endo.ttl.18hr ToxPi: 0.054; endo.cyto.24hr ToxPi: 0.00; endo.mito.24hr ToxPi: 0.00; endo.mitoint.24hr ToxPi: 0.00; endo.nma.24hr ToxPi: 0.00; endo.tc.24hrs ToxPi: 0.00
Clc1ccc(-c2cc(Cl)c(Cl)c(Cl)c2)cc1Cl [PCB126]	0.30	0.00	0.85	0.00	1.00	0.00	0.00	0.00	0.00	0.39	0.06	0.68	0.36	1.00	0.00	0.56	0.34	0.63	–	–	huvec.mtl.18hr ToxPi: 0.00; huvec.tlps.18hr ToxPi: 0.00; huvec.tta.18hr ToxPi: 0.00; huvec.ttl.18hr ToxPi: 0.00; huvec.cyto.24hr ToxPi: 0.30; huvec.mito.24hr ToxPi: 0.00; huvec.mitoint.24hr ToxPi: 0.00; huvec.nma.24hr ToxPi: 0.00; huvec.tc.24hrs ToxPi: 0.30; endo.mtl.18hr ToxPi: 0.13; endo.tlps.18hr ToxPi: 0.49; endo.tta.18hr ToxPi: 0.12; endo.ttl.18hr ToxPi: 0.09; endo.cyto.24hr ToxPi: 1.00; endo.mito.24hr ToxPi: 1.00; endo.mitoint.24hr ToxPi: 0.31; endo.nma.24hr ToxPi: 0.00; endo.tc.24hrs ToxPi: 1.00
Clc1cc(Cl)c(-c2cc(Cl)c(Cl)cc2Cl)cc1Cl [PCB153]	0.64	0.22	0.76	0.65	0.55	0.00	0.66	0.0756	0.60	0.00	0.18	0.46	0.29	0.53	0.24	0.49	0.20	0.51	–	–	huvec.mtl.18hr ToxPi: 0.36; huvec.tlps.18hr ToxPi: 0.09; huvec.tta.18hr ToxPi: 0.48; huvec.ttl.18hr ToxPi: 1.00; huvec.cyto.24hr ToxPi: 0.90; huvec.mito.24hr ToxPi: 0.58; huvec.mitoint.24hr ToxPi: 0.95; huvec.nma.24hr ToxPi: 0.59; huvec.tc.24hrs ToxPi: 0.90; endo.mtl.18hr ToxPi: 1.00; endo.tlps.18hr ToxPi: 0.63; endo.tta.18hr ToxPi: 0.30; endo.ttl.18hr ToxPi: 0.47; endo.cyto.24hr ToxPi: 0.29; endo.mito.24hr ToxPi: 0.29; endo.mitoint.24hr ToxPi: 1.00; endo.nma.24hr ToxPi: 0.08; endo.tc.24hrs ToxPi: 0.12
Clc1ccc(-c2ccccc2)cc1 [PCB 3, 4-chlorobiphenyl]	–	–	–	–	–	–	–	–	–	–	–	–	–	–	–	–	–	–	0.3643	0.2773	–
Clc1cccc(-c2cccc(Cl)c2)c1 [PCB 11, 3,3′-Dichlorobiphenyl]	–	–	–	–	–	–	–	–	–	–	–	–	–	–	–	–	–	–	0.3134	0.3058	–
Clc1ccc(Cl)c(-c2cc(Cl)ccc2Cl)c1 [PCB 52, 2,2′,5,5′-tetrachlorobiphenyl]	–	–	–	–	–	–	–	–	–	–	–	–	–	–	–	–	–	–	0.3123	0.4297	–
Clc1ccc(Cl)c(-c2c(Cl)ccc(Cl)c2Cl)c1 [PCB 95, 2,2′,3,5′,6-pentachlorobiphenyl]	–	–	–	–	–	–	–	–	–	–	–	–	–	–	–	–	–	–	0.3739	0.5465	–
Clc1ccc(-c2cc(Cl)c(Cl)c(Cl)c2)cc1Cl [PCB 126, 3,3′,4,4′,5-pentachlorobiphenyl]	–	–	–	–	–	–	–	–	–	–	–	–	–	–	–	–	–	–	0.3891	0.5293	–
Clc1cc(Cl)c(-c2cc(Cl)c(Cl)cc2Cl)cc1Cl [PCB 153, 2,2′,4,4′,5,5′-hexachlorobiphenyl]	–	–	–	–	–	–	–	–	–	–	–	–	–	–	–	–	–	–	0.6135	0.7686	–
